We go through one compound from patent US8568699B2, “Soft anticholinergic zwitterions” (priority 2005, dated 2013).

The test deals with electrically stimulated guinea pig tracheal strips. In kind it is cell-based.

As for `CC(C)[N+]1(C)[C@@H]2CC[C@H]1CC(OC(=O)C(CO)c1ccccc1)C2.[Br-]` (stereo partly shown) [Ipratropium Br, ipratropium bromide], the t1/5 offset worked out at 6.5 min.
